Data taken from article PMC12238220.
Results are given in words; binding and its absence hold for the method and conditions named. Binding seen in cells or lysates may run through a third protein. Some binding calls cover weakened binding; strength is not graded here.

Sequences of proteins named here, by UniProt entry; tags and fusion partners are left off. Residues count along the entry.
UniProt O60563: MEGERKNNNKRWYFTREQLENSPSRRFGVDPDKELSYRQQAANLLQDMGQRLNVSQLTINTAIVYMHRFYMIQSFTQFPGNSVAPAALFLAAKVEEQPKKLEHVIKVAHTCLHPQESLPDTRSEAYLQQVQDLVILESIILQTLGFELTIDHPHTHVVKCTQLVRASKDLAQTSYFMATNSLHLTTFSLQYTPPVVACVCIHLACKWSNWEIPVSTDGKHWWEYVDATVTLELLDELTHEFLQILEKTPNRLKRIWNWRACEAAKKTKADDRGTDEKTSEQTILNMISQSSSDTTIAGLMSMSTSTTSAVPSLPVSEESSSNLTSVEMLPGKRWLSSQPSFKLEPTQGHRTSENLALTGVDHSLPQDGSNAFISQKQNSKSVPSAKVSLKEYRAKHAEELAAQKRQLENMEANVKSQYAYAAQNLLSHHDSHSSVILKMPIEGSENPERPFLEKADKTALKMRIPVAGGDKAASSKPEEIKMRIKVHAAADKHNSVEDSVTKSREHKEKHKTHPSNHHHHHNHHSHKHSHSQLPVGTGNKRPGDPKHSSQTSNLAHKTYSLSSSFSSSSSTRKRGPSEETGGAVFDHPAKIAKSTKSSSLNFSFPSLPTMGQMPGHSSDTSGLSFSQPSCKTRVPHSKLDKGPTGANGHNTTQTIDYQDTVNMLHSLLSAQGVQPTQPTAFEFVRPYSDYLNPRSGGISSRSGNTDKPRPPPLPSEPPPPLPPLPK
UniProt P35869, residues 11-848: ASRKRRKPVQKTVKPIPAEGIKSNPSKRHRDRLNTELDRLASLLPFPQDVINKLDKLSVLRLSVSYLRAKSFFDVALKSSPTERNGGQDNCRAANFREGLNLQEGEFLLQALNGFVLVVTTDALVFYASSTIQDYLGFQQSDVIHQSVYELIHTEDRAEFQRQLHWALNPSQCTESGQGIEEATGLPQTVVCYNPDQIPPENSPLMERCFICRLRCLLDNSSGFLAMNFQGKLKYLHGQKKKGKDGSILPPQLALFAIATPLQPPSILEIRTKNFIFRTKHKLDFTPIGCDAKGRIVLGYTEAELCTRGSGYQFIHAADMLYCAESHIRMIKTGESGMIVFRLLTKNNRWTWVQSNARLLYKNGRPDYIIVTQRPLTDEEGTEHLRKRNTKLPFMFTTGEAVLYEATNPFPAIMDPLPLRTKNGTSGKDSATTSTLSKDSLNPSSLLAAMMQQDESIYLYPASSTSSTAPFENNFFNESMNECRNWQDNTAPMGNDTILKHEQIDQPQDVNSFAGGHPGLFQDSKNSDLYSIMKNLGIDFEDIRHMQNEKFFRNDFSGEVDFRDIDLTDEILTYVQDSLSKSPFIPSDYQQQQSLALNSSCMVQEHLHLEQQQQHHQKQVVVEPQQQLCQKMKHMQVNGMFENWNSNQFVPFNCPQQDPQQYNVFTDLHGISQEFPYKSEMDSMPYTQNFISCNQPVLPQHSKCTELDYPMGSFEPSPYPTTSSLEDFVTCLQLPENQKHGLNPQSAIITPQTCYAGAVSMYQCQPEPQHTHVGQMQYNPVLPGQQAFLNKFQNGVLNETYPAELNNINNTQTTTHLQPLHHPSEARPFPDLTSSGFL

Target: cyclin T1 (human (endogenous in HepG2)) (UniProt O60563)
Assay: co-IP; lysate of HepG2 cells infected with HSV-1 (MOI=10), collected after 6 h; antibodies against Cyclin T1, AhR, RNA Pol II or IgG (25 ug/ml) on Protein A+G magnetic beads; Western blot for RNAP-II, AhR, cyclin T1, VP16

aryl hydrocarbon receptor (from UniProt P35869 11-848)
binding: binds
